This data set is described as follows: general procedure: peptide synthesis; Oxime resin (0.96 mmol/g, or Novabiochem 0.62 mmol/g); HBTU, TBTU.

As to “3,5-bis(Asp(OtBu)-aminomethyl)benzoyl-D-Val-N-Me-Arg-Gly-OH”, the “crude HPLC purity” value (late stage modification step, Analytical HPLC Method B) was “area %=98%”.
In turn, “3,5-bis(Cbz-Asp(OtBu)-aminomethyl)benzoyl-D-Val-N-Me-Arg-Gly-OBzl” yielded a step yield (coupling step) of 22%. Also, for the setting “coupling step, Analytical HPLC Method C”, the “final HPLC purity” value is “area %=86.5%”.
Where the note is “cyclisation step”, “cyclo(N-Me-Arg(Tos)-Gly-Asp(OtBu)-5-(Asp(OtBu)-aminomethyl)Mamb-D-val)” displayed a cyclisation yield of 58%. Under “cyclisation step, Analytical HPLC Method B”, the “final HPLC purity” value is recorded as “area %=99%”.
Regarding “cyclo(N-Me-Arg-Gly-Asp-5-(Asp-aminomethyl)Mamb-D-val)”, the step yield (late stage modification step) was determined as 55%.
As to “cyclo{N-Me-Arg-Gly-Asp-Mamb-D-Lys([2-[[[5-[carbonyl]-2-pyridinyl]hydrazono]methyl]-benzenesulfonic acid])}”, the conjugation yield (conjugation step) is given as 49%. In addition, under “conjugation step, Analytical HPLC Method A”, the “final HPLC purity” value is recorded as “area %=89%”.

(Values after patent US20030152512A1 (priority 2001, published 2003).)
